# In the supplement of paper PMC12823440, “Inhibitors supercharge kinase turnover through native proteolytic circuits” (Nature, 2025):
# Protein sequences, listed by entry. Tags and fused reporters are not part of them. Lines headed by an entry give the natural chain unless they say otherwise; changes in a name come on top.
# UniProt P28482, whole entry: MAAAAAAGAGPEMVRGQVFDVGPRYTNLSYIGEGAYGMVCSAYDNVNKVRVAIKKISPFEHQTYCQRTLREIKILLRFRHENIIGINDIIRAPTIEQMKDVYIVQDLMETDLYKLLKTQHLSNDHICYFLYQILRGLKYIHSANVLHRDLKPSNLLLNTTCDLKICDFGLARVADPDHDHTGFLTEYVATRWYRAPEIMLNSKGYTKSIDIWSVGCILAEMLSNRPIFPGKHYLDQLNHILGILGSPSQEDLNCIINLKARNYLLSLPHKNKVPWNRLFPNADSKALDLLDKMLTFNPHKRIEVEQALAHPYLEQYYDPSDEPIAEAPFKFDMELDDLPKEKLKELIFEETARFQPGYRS
# UniProt P49137, whole entry, looked up: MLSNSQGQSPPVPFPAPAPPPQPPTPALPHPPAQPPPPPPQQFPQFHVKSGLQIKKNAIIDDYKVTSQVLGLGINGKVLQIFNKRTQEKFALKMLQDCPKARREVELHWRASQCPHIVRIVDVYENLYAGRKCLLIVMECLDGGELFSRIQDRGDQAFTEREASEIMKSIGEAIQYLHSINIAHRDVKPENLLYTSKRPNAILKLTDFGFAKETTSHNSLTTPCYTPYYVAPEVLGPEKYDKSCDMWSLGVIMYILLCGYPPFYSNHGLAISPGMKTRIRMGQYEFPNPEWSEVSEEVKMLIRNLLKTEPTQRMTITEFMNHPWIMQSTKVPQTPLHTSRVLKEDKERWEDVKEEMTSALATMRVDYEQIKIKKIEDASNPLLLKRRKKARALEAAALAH
# UniProt Q16620, whole entry, looked up: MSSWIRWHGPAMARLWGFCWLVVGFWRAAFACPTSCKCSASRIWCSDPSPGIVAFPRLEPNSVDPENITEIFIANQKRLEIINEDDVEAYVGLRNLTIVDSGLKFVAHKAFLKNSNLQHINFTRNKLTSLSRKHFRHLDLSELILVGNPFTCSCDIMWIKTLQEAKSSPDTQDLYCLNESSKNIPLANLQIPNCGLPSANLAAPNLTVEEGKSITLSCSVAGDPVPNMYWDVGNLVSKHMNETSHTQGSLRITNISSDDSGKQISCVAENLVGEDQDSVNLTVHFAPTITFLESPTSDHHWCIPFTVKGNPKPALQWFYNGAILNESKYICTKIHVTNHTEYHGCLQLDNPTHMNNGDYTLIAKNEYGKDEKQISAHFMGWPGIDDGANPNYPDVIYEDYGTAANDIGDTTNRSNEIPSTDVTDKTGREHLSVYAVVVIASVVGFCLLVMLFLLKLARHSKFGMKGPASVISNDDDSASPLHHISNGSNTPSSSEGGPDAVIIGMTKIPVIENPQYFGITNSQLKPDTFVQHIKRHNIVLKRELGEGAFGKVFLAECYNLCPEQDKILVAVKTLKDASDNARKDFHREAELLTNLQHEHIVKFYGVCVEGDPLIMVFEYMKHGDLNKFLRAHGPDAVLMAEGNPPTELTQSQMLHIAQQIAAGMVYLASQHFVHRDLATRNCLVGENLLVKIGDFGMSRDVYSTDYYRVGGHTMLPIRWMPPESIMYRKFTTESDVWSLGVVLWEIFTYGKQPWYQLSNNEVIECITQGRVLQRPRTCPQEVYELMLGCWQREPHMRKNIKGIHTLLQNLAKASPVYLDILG
# UniProt O96013: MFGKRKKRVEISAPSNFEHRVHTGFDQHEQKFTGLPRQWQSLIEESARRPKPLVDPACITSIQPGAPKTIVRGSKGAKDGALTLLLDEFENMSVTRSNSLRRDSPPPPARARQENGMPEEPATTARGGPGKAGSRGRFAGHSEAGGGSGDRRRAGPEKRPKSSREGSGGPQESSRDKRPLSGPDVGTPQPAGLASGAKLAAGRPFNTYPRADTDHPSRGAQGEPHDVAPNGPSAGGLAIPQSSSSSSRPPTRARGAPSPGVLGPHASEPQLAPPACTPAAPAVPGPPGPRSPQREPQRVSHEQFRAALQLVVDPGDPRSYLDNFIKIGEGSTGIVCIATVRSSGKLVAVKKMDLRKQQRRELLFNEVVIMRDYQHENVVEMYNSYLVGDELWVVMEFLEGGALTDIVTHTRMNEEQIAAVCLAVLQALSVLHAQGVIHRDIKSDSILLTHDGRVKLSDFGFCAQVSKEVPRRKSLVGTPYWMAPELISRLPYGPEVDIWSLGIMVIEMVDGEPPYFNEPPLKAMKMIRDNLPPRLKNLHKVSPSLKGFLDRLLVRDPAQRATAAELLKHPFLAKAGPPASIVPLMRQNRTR
# UniProt Q96KB5: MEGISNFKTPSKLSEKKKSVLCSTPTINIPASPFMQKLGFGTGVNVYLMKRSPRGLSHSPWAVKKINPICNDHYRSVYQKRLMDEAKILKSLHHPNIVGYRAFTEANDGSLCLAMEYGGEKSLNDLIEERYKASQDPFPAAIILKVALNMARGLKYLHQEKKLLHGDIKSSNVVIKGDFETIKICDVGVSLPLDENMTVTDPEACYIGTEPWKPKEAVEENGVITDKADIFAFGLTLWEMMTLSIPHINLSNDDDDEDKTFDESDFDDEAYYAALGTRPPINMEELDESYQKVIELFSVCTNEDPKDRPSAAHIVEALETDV
# UniProt Q15118, whole entry, looked up: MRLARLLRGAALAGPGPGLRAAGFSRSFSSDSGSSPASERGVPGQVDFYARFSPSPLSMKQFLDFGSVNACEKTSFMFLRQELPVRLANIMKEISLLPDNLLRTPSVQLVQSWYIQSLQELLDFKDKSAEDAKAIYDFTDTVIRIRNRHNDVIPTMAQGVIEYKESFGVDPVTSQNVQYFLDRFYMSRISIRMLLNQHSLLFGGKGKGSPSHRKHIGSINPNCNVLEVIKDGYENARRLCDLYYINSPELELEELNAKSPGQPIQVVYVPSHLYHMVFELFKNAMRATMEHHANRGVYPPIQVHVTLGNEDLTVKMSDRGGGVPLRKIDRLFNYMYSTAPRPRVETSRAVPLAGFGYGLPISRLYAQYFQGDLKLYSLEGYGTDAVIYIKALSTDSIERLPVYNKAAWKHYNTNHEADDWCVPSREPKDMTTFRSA
# UniProt Q9UBF8: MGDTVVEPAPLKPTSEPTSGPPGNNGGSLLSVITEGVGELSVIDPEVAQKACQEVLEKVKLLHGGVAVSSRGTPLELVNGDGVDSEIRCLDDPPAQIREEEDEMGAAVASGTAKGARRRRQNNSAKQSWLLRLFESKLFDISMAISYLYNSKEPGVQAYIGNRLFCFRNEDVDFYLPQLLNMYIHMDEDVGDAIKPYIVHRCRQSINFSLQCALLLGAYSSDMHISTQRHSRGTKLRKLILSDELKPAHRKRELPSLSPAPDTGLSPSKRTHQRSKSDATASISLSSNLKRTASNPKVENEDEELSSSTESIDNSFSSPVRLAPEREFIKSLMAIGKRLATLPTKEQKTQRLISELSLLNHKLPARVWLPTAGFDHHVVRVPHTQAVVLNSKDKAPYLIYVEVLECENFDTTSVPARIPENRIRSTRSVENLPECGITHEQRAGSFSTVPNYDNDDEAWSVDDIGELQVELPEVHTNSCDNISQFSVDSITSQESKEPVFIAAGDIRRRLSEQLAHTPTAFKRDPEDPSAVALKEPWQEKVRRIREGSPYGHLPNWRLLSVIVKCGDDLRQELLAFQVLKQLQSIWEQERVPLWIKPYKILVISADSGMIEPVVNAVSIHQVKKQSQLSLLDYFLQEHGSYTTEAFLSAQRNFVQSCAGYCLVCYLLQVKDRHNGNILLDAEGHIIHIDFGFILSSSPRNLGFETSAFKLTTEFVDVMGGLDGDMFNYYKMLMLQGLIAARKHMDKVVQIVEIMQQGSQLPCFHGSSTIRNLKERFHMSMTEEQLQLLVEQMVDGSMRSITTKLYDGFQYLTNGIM
# UniProt P53350, whole entry: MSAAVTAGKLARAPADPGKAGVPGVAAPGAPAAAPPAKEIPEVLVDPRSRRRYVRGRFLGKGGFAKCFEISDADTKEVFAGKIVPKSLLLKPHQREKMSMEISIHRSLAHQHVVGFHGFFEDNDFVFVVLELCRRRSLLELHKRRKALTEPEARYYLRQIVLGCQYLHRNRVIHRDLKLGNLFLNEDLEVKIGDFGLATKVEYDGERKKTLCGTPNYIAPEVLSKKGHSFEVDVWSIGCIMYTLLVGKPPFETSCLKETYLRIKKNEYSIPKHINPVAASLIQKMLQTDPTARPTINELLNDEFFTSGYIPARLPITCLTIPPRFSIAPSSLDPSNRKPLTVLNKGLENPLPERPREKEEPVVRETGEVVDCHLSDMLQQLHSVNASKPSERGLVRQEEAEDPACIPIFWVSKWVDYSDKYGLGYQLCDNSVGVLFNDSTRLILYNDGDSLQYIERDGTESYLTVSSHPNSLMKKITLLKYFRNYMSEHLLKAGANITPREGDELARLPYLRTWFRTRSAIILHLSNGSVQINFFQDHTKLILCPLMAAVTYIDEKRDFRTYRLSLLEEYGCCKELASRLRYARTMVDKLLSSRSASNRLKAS
# UniProt Q13131: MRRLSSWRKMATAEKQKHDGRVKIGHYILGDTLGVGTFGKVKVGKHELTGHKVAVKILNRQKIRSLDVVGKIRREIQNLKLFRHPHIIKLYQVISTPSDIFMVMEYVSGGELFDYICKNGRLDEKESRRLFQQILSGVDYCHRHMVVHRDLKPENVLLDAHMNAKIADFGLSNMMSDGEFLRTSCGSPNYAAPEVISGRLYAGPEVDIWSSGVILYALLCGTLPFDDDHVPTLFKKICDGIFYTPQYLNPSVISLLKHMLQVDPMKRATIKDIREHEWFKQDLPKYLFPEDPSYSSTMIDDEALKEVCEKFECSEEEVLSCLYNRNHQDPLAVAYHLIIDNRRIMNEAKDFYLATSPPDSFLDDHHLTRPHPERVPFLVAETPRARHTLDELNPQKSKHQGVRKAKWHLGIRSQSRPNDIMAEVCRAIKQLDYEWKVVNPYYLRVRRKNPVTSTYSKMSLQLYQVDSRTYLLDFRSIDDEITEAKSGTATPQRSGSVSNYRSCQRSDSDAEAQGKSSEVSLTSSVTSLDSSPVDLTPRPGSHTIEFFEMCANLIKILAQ
# UniProt Q14289, whole entry, looked up: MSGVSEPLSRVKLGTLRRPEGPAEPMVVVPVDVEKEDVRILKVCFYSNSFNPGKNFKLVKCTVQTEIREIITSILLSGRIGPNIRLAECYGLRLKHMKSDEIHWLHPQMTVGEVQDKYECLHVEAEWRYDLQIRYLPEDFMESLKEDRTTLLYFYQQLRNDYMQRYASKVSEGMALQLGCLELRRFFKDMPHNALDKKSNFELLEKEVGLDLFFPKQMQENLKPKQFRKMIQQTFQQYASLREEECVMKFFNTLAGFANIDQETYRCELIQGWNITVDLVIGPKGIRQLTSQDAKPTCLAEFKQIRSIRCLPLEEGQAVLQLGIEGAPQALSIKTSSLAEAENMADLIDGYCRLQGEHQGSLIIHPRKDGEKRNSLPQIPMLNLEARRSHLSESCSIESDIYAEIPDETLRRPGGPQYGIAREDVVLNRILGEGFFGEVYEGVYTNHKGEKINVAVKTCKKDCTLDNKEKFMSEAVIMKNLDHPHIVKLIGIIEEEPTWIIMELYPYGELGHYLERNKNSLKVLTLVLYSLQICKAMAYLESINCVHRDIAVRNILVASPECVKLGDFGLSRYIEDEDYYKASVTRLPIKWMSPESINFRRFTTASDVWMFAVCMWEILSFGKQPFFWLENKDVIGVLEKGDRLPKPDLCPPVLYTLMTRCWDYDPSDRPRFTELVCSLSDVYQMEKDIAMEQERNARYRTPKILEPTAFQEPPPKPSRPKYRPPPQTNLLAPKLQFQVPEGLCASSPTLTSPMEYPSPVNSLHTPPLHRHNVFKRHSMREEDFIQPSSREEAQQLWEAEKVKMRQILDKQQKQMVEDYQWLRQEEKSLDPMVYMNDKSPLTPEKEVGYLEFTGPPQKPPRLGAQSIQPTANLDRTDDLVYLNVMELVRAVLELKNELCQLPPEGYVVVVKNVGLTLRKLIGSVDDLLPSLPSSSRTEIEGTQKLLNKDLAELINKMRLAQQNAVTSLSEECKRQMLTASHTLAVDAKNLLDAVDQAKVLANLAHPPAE
# Structures can show the parent of a compound that is named as a salt. Some of the results follow. Hit calls seldom repeat between salt and free forms of one compound.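 In K562 cells expressing nanoluciferase-fused kinases, luminescence was recorded at 4 h intervals between 2 and 18 h, normalized as percent of control with DMSO at 100% and a positive control at 0%. A significant (2 sigma) signal drop marks a time point as decreased. The authors' rule for a hit is not shown and takes in more than the number of time points.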
# Assays:
# Assay in all cases: kinase-Nluc reporter destabilization hit call (1 = scored as downregulated) (binary); higher = compound decreases kinase abundance
# Conditions in all cases: K562, 2-18 h
# MAPK1 = MAPK1 (UniProt P28482)
# MAPK4 = MAPK4 (UniProt P31152)
# MAPKAPK2 = MAPKAPK2 (UniProt P49137)
# MKNK1 = MKNK1 (UniProt Q9BUB5)
# NTRK2 = NTRK2 (UniProt Q16620)
# NTRK3 = NTRK3 (UniProt Q16288)
# PAK4 = PAK4 (UniProt O96013)
# PBK = PBK (UniProt Q96KB5)
# PDGFRB = PDGFRB (UniProt P09619)
# PDK1 = PDK1 (UniProt Q15118)
# PDPK1 = PDPK1 (UniProt O15530)
# PIK4CA = PIK4CA (UniProt P42356)
# PIK4CB = PIK4CB (UniProt Q9UBF8)
# PLK1 = PLK1 (UniProt P53350)
# PRKAA1 = PRKAA1 (UniProt Q13131)
# PRKCA = PRKCA (UniProt P17252)
# PTK2 = PTK2 (UniProt Q05397)
# PTK2B = PTK2B (UniProt Q14289)
# RAF1 = RAF1 (UniProt P04049)
# [1] = biological target: RAF1_S257L (clone: RAF1_mut) (UniProt P04049)
SMILES,kinase-Nluc reporter destabilization hit call (MAPK1; 2.5 µM),kinase-Nluc reporter destabilization hit call (MAPK1; 10 µM),kinase-Nluc reporter destabilization hit call (MAPK4; 2.5 µM),kinase-Nluc reporter destabilization hit call (MAPK4; 10 µM),kinase-Nluc reporter destabilization hit call (MAPKAPK2; 2.5 µM),kinase-Nluc reporter destabilization hit call (MAPKAPK2; 10 µM),kinase-Nluc reporter destabilization hit call (MKNK1; 2.5 µM),kinase-Nluc reporter destabilization hit call (MKNK1; 10 µM),kinase-Nluc reporter destabilization hit call (NTRK2; 2.5 µM),kinase-Nluc reporter destabilization hit call (NTRK2; 10 µM),kinase-Nluc reporter destabilization hit call (NTRK3; 2.5 µM),kinase-Nluc reporter destabilization hit call (NTRK3; 10 µM),kinase-Nluc reporter destabilization hit call (PAK4; 2.5 µM),kinase-Nluc reporter destabilization hit call (PAK4; 10 µM),kinase-Nluc reporter destabilization hit call (PBK; 2.5 µM),kinase-Nluc reporter destabilization hit call (PBK; 10 µM),kinase-Nluc reporter destabilization hit call (PDGFRB; 2.5 µM),kinase-Nluc reporter destabilization hit call (PDGFRB; 10 µM),kinase-Nluc reporter destabilization hit call (PDK1; 2.5 µM),kinase-Nluc reporter destabilization hit call (PDK1; 10 µM),kinase-Nluc reporter destabilization hit call (PDPK1; 2.5 µM),kinase-Nluc reporter destabilization hit call (PDPK1; 10 µM),kinase-Nluc reporter destabilization hit call (PIK4CA; 2.5 µM),kinase-Nluc reporter destabilization hit call (PIK4CA; 10 µM),kinase-Nluc reporter destabilization hit call (PIK4CB; 2.5 µM),kinase-Nluc reporter destabilization hit call (PIK4CB; 10 µM),kinase-Nluc reporter destabilization hit call (PLK1; 2.5 µM),kinase-Nluc reporter destabilization hit call (PLK1; 10 µM),kinase-Nluc reporter destabilization hit call (PRKAA1; 2.5 µM),kinase-Nluc reporter destabilization hit call (PRKAA1; 10 µM),kinase-Nluc reporter destabilization hit call (PRKCA; 2.5 µM),kinase-Nluc reporter destabilization hit call (PRKCA; 10 µM),kinase-Nluc reporter destabilization hit call (PTK2; 2.5 µM),kinase-Nluc reporter destabilization hit call (PTK2; 10 µM),kinase-Nluc reporter destabilization hit call (PTK2B; 2.5 µM),kinase-Nluc reporter destabilization hit call (PTK2B; 10 µM),kinase-Nluc reporter destabilization hit call (RAF1; 2.5 µM),kinase-Nluc reporter destabilization hit call (RAF1; 10 µM),kinase-Nluc reporter destabilization hit call ([1]; 2.5 µM),kinase-Nluc reporter destabilization hit call ([1]; 10 µM)
C=CC(=O)N1CCN(c2ncnc3c(F)c(-c4c(O)cccc4F)c(Cl)cc23)CC1,inactive: 0,inactive: 0,inactive: 0,inactive: 0,inactive: 0,inactive: 0,inactive: 0,inactive: 0,inactive: 0,inactive: 0,inactive: 0,inactive: 0,inactive: 0,inactive: 0,inactive: 0,inactive: 0,inactive: 0,inactive: 0,inactive: 0,inactive: 0,inactive: 0,inactive: 0,inactive: 0,inactive: 0,inactive: 0,inactive: 0,inactive: 0,inactive: 0,inactive: 0,inactive: 0,inactive: 0,inactive: 0,inactive: 0,inactive: 0,inactive: 0,inactive: 0,inactive: 0,inactive: 0,inactive: 0,inactive: 0
CNC(=O)c1ccccc1Nc1cc(Nc2ccc(N3CCOCC3)cc2OC)ncc1C(F)(F)F,–,inactive: 0,–,inactive: 0,–,inactive: 0,–,inactive: 0,–,inactive: 0,–,inactive: 0,–,inactive: 0,–,inactive: 0,–,inactive: 0,–,inactive: 0,–,inactive: 0,–,inactive: 0,–,inactive: 0,–,inactive: 0,–,inactive: 0,–,inactive: 0,–,inactive: 0,–,inactive: 0,–,inactive: 0,–,inactive: 0
C#Cc1cccc(Nc2ncnc3cc(OCCOC)c(OCCO)cc23)c1 [Desmethyl Erlotinib (hydrochloride)],–,inactive: 0,–,inactive: 0,–,inactive: 0,–,inactive: 0,–,inactive: 0,–,inactive: 0,–,inactive: 0,–,inactive: 0,–,inactive: 0,–,inactive: 0,–,inactive: 0,–,inactive: 0,–,inactive: 0,–,inactive: 0,–,active: 1,–,inactive: 0,–,inactive: 0,–,inactive: 0,–,inactive: 0,–,inactive: 0
Cc1ccc(NC(=O)c2ccc(CN3CCN(C)CC3)cc2)cc1Nc1nc(-c2cccnc2)cs1 [Masitinib],inactive: 0,–,inactive: 0,–,inactive: 0,–,inactive: 0,–,inactive: 0,–,inactive: 0,–,inactive: 0,–,inactive: 0,–,inactive: 0,–,inactive: 0,–,inactive: 0,–,inactive: 0,–,inactive: 0,–,inactive: 0,–,inactive: 0,–,inactive: 0,–,inactive: 0,–,inactive: 0,–,inactive: 0,–,inactive: 0,–
COc1ccnc(C[S+]([O-])c2nc3cc(-n4cccc4)ccc3[nH]2)c1C (stereo not given) [Ilaprazole],–,inactive: 0,–,inactive: 0,–,inactive: 0,–,inactive: 0,–,inactive: 0,–,inactive: 0,–,inactive: 0,–,inactive: 0,–,inactive: 0,–,inactive: 0,–,inactive: 0,–,inactive: 0,–,inactive: 0,–,inactive: 0,–,inactive: 0,–,inactive: 0,–,inactive: 0,–,inactive: 0,–,inactive: 0,–,inactive: 0
COc1ccnc(C[S+]([O-])c2nc3cc(-n4cccc4)ccc3[nH]2)c1C (stereo not given) [Ilaprazole (sodium)],–,inactive: 0,–,inactive: 0,–,inactive: 0,–,inactive: 0,–,inactive: 0,–,inactive: 0,–,inactive: 0,–,inactive: 0,–,inactive: 0,–,inactive: 0,–,inactive: 0,–,inactive: 0,–,inactive: 0,–,inactive: 0,–,inactive: 0,–,inactive: 0,–,inactive: 0,–,inactive: 0,–,inactive: 0,–,inactive: 0
Cc1ccc(NC(=O)c2ccc(CN3CCN(C)CC3)cc2)cc1Nc1nc(-c2cccnc2)cs1 [Masitinib (mesylate)],inactive: 0,–,inactive: 0,–,inactive: 0,–,inactive: 0,–,inactive: 0,–,inactive: 0,–,inactive: 0,–,inactive: 0,–,inactive: 0,–,inactive: 0,–,inactive: 0,–,inactive: 0,–,inactive: 0,–,inactive: 0,–,inactive: 0,–,inactive: 0,–,inactive: 0,–,inactive: 0,–,inactive: 0,–,active: 1,–
C=CC(=O)Nc1cc(Nc2nccc(-c3cn(C)c4ccccc34)n2)c(OC)cc1N(C)CCN(C)C [Osimertinib (dimesylate)],inactive: 0,–,inactive: 0,–,inactive: 0,–,inactive: 0,–,inactive: 0,–,inactive: 0,–,inactive: 0,–,inactive: 0,–,inactive: 0,–,inactive: 0,–,inactive: 0,–,inactive: 0,–,inactive: 0,–,inactive: 0,–,inactive: 0,–,inactive: 0,–,inactive: 0,–,inactive: 0,–,inactive: 0,–,inactive: 0,–
